By UniProt entry, the sequences of proteins in these tests, tags left out. Where a name states a change or a piece, a line headed by the entry shows the natural chain unless it says otherwise.
UniProt P51450: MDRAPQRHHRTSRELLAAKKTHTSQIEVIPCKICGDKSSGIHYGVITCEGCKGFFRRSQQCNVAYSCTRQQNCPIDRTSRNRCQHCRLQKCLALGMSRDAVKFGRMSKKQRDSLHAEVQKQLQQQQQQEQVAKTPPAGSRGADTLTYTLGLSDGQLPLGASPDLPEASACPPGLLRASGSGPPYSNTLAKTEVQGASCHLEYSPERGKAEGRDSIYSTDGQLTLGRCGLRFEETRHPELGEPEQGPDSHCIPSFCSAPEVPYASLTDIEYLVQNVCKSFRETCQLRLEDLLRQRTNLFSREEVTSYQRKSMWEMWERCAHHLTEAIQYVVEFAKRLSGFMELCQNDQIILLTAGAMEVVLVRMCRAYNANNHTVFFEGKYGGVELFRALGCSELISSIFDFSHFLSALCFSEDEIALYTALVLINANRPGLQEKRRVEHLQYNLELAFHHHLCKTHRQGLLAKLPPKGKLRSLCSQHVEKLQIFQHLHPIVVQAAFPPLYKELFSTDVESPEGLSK

Out of some 310,000 compounds screened, about 17,000 (5.5%) were called active. Inconclusive means that the source gave no clear call. Such entries were picked first, then a sample of the others. The call rests on the fitted dose curve; in most records, active means well fitted inhibition curve with a large enough effect; inconclusive means small, poorly fitted or top-dose-only effect, or effect the other way; inactive means no such curve, though single readings can be large or run the other way. Where the call is inconclusive, the potency comes from a doubtful curve fit.
What follows are compounds tested against Nuclear receptor ROR-gamma (Mus musculus) (UniProt P51450) (assay: qHTS for inhibitors of ROR gamma transcriptional activity). Conditions: Drosophila S2 Gal4-RORgamma UAS-luciferase reporter, 20 h; activity change, negative = inhibition: at 53.6 µM (top of the series).
In short: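 Luciferase reporter read in Schneider cells carrying Gal4-RORγ (mouse) and UAS-Photinus luciferase; cells given compound 1 h before 700 uM copper sulfate induction, then incubated 20 h at ambient temperature.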
For `CC(C)(C)c1ccc(C(=O)NNC(=S)NCC2CCCO2)cc1` (stereo not given), the Potency was active: 3.98 µM.
With `Cc1ccc([N+](=O)[O-])c(-c2n[nH]c(=S)n2-c2cccc(Cl)c2)c1` the Potency was inconclusive: 0.355 µM [inhibitor, full curve].
With `O=C(O)c1ccc(N/N=C/c2cc(Br)cs2)cc1` the Potency was active: 6.31 µM.
For `O=C(NC1CCCCCCC1)c1cc(COc2ccc3ncccc3c2)on1`, the Potency was inconclusive: 7.08 µM [inhibitor, partial curve].
`CN(C)c1ccc(C(CNS(=O)(=O)c2ccc(F)cc2)c2c[nH]c3ccccc23)cc1` (stereo not given) was tested, and the Potency was inconclusive: 11.2 µM [activator, partial curve].
With `CCc1nnc(N/N=C/c2c(C)[nH]c3ccccc23)n1N` the Potency was inconclusive: 12.6 µM [inhibitor, single point].
`O=C(N/N=C/c1ccccc1)c1ccc2c(c1)OCO2` was tested, and the Potency was inconclusive: 28.2 µM [inhibitor, single point].
With `O=C(CSc1n[nH]c(-c2cccs2)n1)N1CCN(S(=O)(=O)c2ccccc2)CC1` the Potency was inconclusive: 11.2 µM [activator, single point].
In the case of `CC1=NN(/C(=N\c2nnc(C)s2)Nc2ccc(C(C)(C)C)cc2)[C@H](c2ccc(C)cc2)S1`, the Potency is reported as active: 17.8 µM.
For `CN(C)c1ccc(NC(=O)CSc2nc(N)c(C(=O)Nc3ccc(N(C)C)cc3)s2)cc1`, the Potency was inconclusive: 31.6 µM [activator, single point].
With `CCOC(=O)C1CCCN(C(=O)c2ccc3nc(-c4ccccc4)c(-c4ccccc4)nc3c2)C1` (stereo not given) the “activity change, negative = inhibition” value was inactive: 11.6%.
In the case of `CC(C)(C)OC(=O)CN1C(=O)C(Sc2n[nH]c(-c3ccccc3)n2)CCc2ccccc21` (stereo not given), the Potency is reported as inconclusive: 31.6 µM [activator, single point].
In the case of `COc1cc(C(=O)Oc2ccc3ccc(O)cc3c2)cc(OC)c1OC`, the Potency is reported as inconclusive: 11.2 µM [activator, partial curve, poor fit].
`S=c1[nH]nc(COc2ccccc2)n1/N=C/c1cccc(Cl)c1Cl` was tested, and the Potency was inconclusive: 12.6 µM [inhibitor, partial curve, poor fit].
With `N#Cc1ccc(OCC(=O)N/N=C2/CC(c3ccccc3)Oc3ccccc32)cc1` (stereo not given) the Potency was active: 11.2 µM.
In the case of `Fc1cccc(/C=N/Nc2nncc3ccccc23)c1`, the Potency is reported as active: 1.26 µM.
`O=C(NCc1nnc(SCC(=O)N2CCN(c3ccccc3)CC2)o1)c1ccc(F)cc1` was tested, and the Potency was inconclusive: 3.16 µM [inhibitor, single point].
In the case of `Cc1nn(-c2ccc(F)cc2)c(Cl)c1/C=N/NC(=O)c1cccs1`, the Potency is reported as inconclusive: 4.47 µM [activator, full curve].
For `CCn1c(O)c(N=NC(=O)CNc2ccc(C)cc2)c2ccccc21`, the Potency was inconclusive: 15.8 µM [inhibitor, single point].
With `O=[N+]([O-])c1cccc(Cl)c1NCCNS(=O)(=O)c1ccccc1` the Potency was inconclusive: 17.8 µM [activator, partial curve].
In the case of `O=C(c1ccc(CS(=O)(=O)Cc2ccc(Cl)cc2)o1)N1CCCC1`, the Potency is reported as inconclusive: 35.5 µM [activator, single point].
In the case of `COc1ccc(-c2noc(N3CCC(C(=O)Nc4cc(OC)ccc4OC)CC3)n2)cc1`, the “activity change, negative = inhibition” value is reported as inactive: 19.7%.
In the case of `CC(C)c1ccc(NC(=O)NCc2ccc(F)cc2)cc1`, the Potency is reported as inconclusive: 11.2 µM [activator, partial curve].
With `CCOCCC(=O)Nc1cc(Cl)ccc1OC` the Potency was inconclusive: 0.199 µM [inhibitor, full curve, poor fit].
In the case of `COc1ccc(/C=N/NC2=NS(=O)(=O)c3ccccc32)cc1`, the Potency is reported as inconclusive: 17.8 µM [inhibitor, partial curve, poor fit].
With `CC1CCN(C(=S)NC(=O)c2ccco2)CC1` the Potency was active: 3.98 µM.
In the case of `COc1ccc(/C=N/Nc2nc3ccccc3[nH]2)c(OC)c1OC`, the Potency is reported as active: 12.6 µM.
With `CCOc1ccccc1N=C1SC(CC(=O)Nc2ccc(OC)cc2OC)C(=O)N1CCC1=CCCCC1` (stereo not given) the Potency was inconclusive: 35.5 µM [inhibitor, single point].
For `C/C(=N\Nc1nc2ccccc2nc1C)c1ccccc1O`, the Potency was active: 0.224 µM.
In the case of `CC(=O)n1cc(/C=N/NC(=O)c2ccccc2O)c2ccccc21`, the Potency is reported as active: 2.82 µM.
`N#Cc1ccccc1OCC(=O)C1CC1` was tested, and the “activity change, negative = inhibition” value was inactive: -1.7%.
`O=C(CSCC(=O)N1CCCCC1)Nc1nc(-c2ccc(Cl)s2)cs1` was tested, and the Potency was inconclusive: 11.2 µM [activator, partial curve].
With `CCCCn1c(-c2ccc(OC(F)F)cc2)nc2c1c(=O)[nH]c(=O)n2CC(C)C` the “activity change, negative = inhibition” value was inactive: 13%.
In the case of `COc1ccccc1/C=C1\SC(=S)N(CC(=O)Nc2nnc(C)s2)C1=O`, the Potency is reported as inconclusive: 5.01 µM [inhibitor, partial curve, poor fit].
`CC(NC(=O)c1ccc(N(C)C)cc1)C(c1cccs1)N1CCN(C)CC1` (stereo not given) was tested, and the Potency was inconclusive: 17.8 µM [inhibitor, single point].
`CC(C)Oc1ccc(CNC(=S)N/N=C/c2ccc([N+](=O)[O-])cc2)cc1` was tested, and the Potency was active: 2.51 µM.
`CC(=O)NS(=O)(=O)c1ccc(NC(=O)C(Sc2ccccc2)c2ccccc2)cc1` (stereo not given) was tested, and the “activity change, negative = inhibition” value was inactive: 11%.
In the case of `CC(C)(C)c1cc(CCC(=O)N2CCC2)cc(C(C)(C)C)c1O`, the Potency is reported as active: 12.6 µM.
For `CCn1c(=O)c(C(=O)NNC(=O)c2ccccc2Cl)c(O)c2ccccc21`, the Potency was active: 7.94 µM.
`Nc1c(-c2ccccc2)cnc2c(-c3ccccc3)cnn12` was tested, and the Potency was active: 6.31 µM.
With `COc1ccc(OC)c(NC(=O)c2cccc(NC(=O)c3ccccc3)c2)c1` the “activity change, negative = inhibition” value was inactive: 37%.
With `Cc1ccc(-c2n[nH]c(=O)c3ccccc23)cc1S(=O)(=O)Nc1ccccc1` the Potency was inconclusive: 31.6 µM [inhibitor, single point].
With `COc1ccc(CNC(=O)C2CCC(CNC(=O)[C@@H]3Cc4ccccc4CN3)CC2)cc1` (stereo not given in full) the Potency was inconclusive: 22.4 µM [inhibitor, single point].
With `CC(=O)N1CC(C)Sc2ccc(S(=O)(=O)NCc3ccc(F)cc3)cc21` (stereo not given) the “activity change, negative = inhibition” value was inactive: 29.6%.
In the case of `CCN(CC)S(=O)(=O)c1ccc(-c2nnc(SCC(=O)Nc3ccc(OC)cc3)o2)cc1`, the Potency is reported as inconclusive: 1.58 µM [activator, single point].

Source: PubChem BioAssay AID2551 (National Center for Advancing Translational Sciences (NCATS), 2010)
Further: nearly all actives have a fitted effect of over 60% in size.
On the % scale 0 is the no-effect control and ±100 the full control effect; potency means the concentration at half of the fitted maximal effect.
